Experimental data taken from patent US12410220B2 (priority 2021, dated 2025).

Experiment: peptide synthesis
Settings: % yield by MS; for step yield: lipidation step; for conjugation yield: conjugation step

Substance | step yield [%] | conjugation yield
(lau)-KKGFYKKKQCRPSKGRKRGFCW | 96.7 | –
(h4p)-KKGFYKKKQCRPSKGRKRGFCW | – | 85.1%
(dec)-KKGFYKKKQCRPSKGRKRGFCW | 98.0 | –
(vlp)-KKGFYKKKQCRPSKGRKRGFCW | – | 84.9%
(rg108)-KKGFYKKKQCRPSKGRKRGFCW (N-terminal RG108) | – | 74.3%@
